{"source": "PubChem BioAssay AID1259254 (NCATS, 2017)", "assay": "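Genome-wide screen for genes that prevent DNA re-replication in cancer cells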 (primary screen)", "cell system": "human HCT116 colorectal cancer cells", "knock-down reagent": "single siRNA against human genes", "timing": "3 days", "measured": "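Nuclei stained with Hoechst and imaged; cell-cycle phase assigned by DNA content; G2 share scaled per plate, non-targeting siRNA 0%, GMNN siRNA 100%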", "reading the numbers": "G2 robust z-score: higher = more G2 cells, more excess DNA replication", "hit rule": "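An siRNA counts as active if its G2 robust z-score lies at least 5 MADs above the screen median; here such calls match roughly 38% of GMNN control or more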", "note": "The whole screen tested about 59,000 reagents; shown is a part drawn at random. About 1,550 of all reagents (2.6%) were called active. 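G2 share is only a proxy for re-replication; each gene was hit by three separate siRNAs, and active genes were retested.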 Unmarked entries are inactive. Reagents against one gene are numbered here. Further read-outs or replicates are left out here. Not given: the amount of reagent."}
{"Gene": "C12orf60", "reagent no.": 1, "G2 robust z-score": 1.74}
{"Gene": "C12orf60", "reagent no.": 2, "G2 robust z-score": -0.467}
{"Gene": "C12orf60", "reagent no.": 3, "G2 robust z-score": -0.484}
{"Gene": "SERPINB6", "reagent no.": 1, "G2 robust z-score": 1.15}
{"Gene": "SERPINB6", "reagent no.": 2, "G2 robust z-score": -0.601}
{"Gene": "SERPINB6", "reagent no.": 3, "G2 robust z-score": -0.644}
{"Gene": "CHMP4B", "reagent no.": 1, "G2 robust z-score": 0.998}
{"Gene": "CHMP4B", "reagent no.": 2, "G2 robust z-score": "6.42 (active)"}
{"Gene": "CHMP4B", "reagent no.": 3, "G2 robust z-score": 2.56}
{"Gene": "SLC28A1", "reagent no.": 1, "G2 robust z-score": -0.992}
{"Gene": "SLC28A1", "reagent no.": 2, "G2 robust z-score": -1.03}
{"Gene": "SLC28A1", "reagent no.": 3, "G2 robust z-score": -0.427}
